Data on 24 molecules can be found in the supplement of paper PMC5355238.

Where “and” joins values, the source holds several entries; their conditions need not be identical. Equal values may be shown once. Where a name gives a salt, the structure may show the parent alone. The list shows a part of the results. Most entries show no effect beyond the scatter of the controls.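 Reh is a human leukemia cell line; the read-out is the median γH2AX antibody signal in S-phase cells by flow cytometry, with the score counting standard deviations from the median difference of each paired set of plates. Scores above 2.5 were called candidate hits, while scores below -2 mark compounds that lowered the MK1775-induced damage.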

The test system of the assay is Reh. Put plainly: Z' of S-phase gammaH2AX difference (drug + MK1775 minus drug alone) (Z-score); higher = stronger synergistic S-phase DNA damage with MK1775. As to conditions: MK1775 concentration 400 nM; first compound 10 µM; 4 h.
As to `O=C(Cc1ccc(-c2ccc(OCCN3CCOCC3)cc2)cn1)NCc1ccccc1` + C=CCn1c(=O)c2cnc(Nc3ccc(N4CCN(C)CC4)cc3)nc2n1-c1cccc(C(C)(C)O)n1 [MK1775], the “Z' of S-phase gammaH2AX difference (Z-score)” value was inactive: 0.0909.

For `N[C@H](CO)C(=O)O` [D-Serine] + C=CCn1c(=O)c2cnc(Nc3ccc(N4CCN(C)CC4)cc3)nc2n1-c1cccc(C(C)(C)O)n1 [MK1775], the “Z' of S-phase gammaH2AX difference (Z-score)” value is inactive: -0.502.

In the case of `NC(Cc1cccc(-c2ccccc2CP(=O)(O)O)c1)C(=O)O` (stereo not drawn) [Phenylbenzene-omega-phosphono-alpha-amino acid] + C=CCn1c(=O)c2cnc(Nc3ccc(N4CCN(C)CC4)cc3)nc2n1-c1cccc(C(C)(C)O)n1 [MK1775], the “Z' of S-phase gammaH2AX difference (Z-score)” value is inactive: 0.204.

Consider `O=S(=O)(c1cccc2cnccc12)N1CCNCC1` + C=CCn1c(=O)c2cnc(Nc3ccc(N4CCN(C)CC4)cc3)nc2n1-c1cccc(C(C)(C)O)n1 [MK1775], for which the “Z' of S-phase gammaH2AX difference (Z-score)” value is inactive: 1.67.

As to `CCN[C@H]1C[C@H](C)S(=O)(=O)c2sc(S(N)(=O)=O)cc21` [Dorzolamide HCL] + C=CCn1c(=O)c2cnc(Nc3ccc(N4CCN(C)CC4)cc3)nc2n1-c1cccc(C(C)(C)O)n1 [MK1775], the “Z' of S-phase gammaH2AX difference (Z-score)” value is inactive: 0.412.

In the case of `C[N+](C)(C)CCCCCNCC12CC3CC(CC(C3)C1)C2` + C=CCn1c(=O)c2cnc(Nc3ccc(N4CCN(C)CC4)cc3)nc2n1-c1cccc(C(C)(C)O)n1 [MK1775], the “Z' of S-phase gammaH2AX difference (Z-score)” value is inactive: 1.58.

For `CO[C@@]1(NC(=O)CSCC#N)C(=O)N2C(C(=O)O)=C(CSc3nnnn3C)CS[C@@H]21` [Cefmetazole sodium] + C=CCn1c(=O)c2cnc(Nc3ccc(N4CCN(C)CC4)cc3)nc2n1-c1cccc(C(C)(C)O)n1 [MK1775], the “Z' of S-phase gammaH2AX difference (Z-score)” value is inactive: 1.1.

Regarding `COc1ccc2[nH]c(I)c(CCNC(C)=O)c2c1` [2-Iodomelatonin] + C=CCn1c(=O)c2cnc(Nc3ccc(N4CCN(C)CC4)cc3)nc2n1-c1cccc(C(C)(C)O)n1 [MK1775], the “Z' of S-phase gammaH2AX difference (Z-score)” value was inactive: 0.284.

In the case of `CCOC(=O)C(C)(C)Oc1ccc(Cl)cc1` [Clofibrate] + C=CCn1c(=O)c2cnc(Nc3ccc(N4CCN(C)CC4)cc3)nc2n1-c1cccc(C(C)(C)O)n1 [MK1775], the “Z' of S-phase gammaH2AX difference (Z-score)” value was inactive: 0.301.

As to `c1cnc2c(c1)ccc1cccnc12` [1,10-Phenanthroline monohydrate] + C=CCn1c(=O)c2cnc(Nc3ccc(N4CCN(C)CC4)cc3)nc2n1-c1cccc(C(C)(C)O)n1 [MK1775], the “Z' of S-phase gammaH2AX difference (Z-score)” value is inactive: -7.3.

In the case of `CC(C)NC[C@H](O)COc1ccc(CC(N)=O)cc1` [S(-)-Atenolol] + C=CCn1c(=O)c2cnc(Nc3ccc(N4CCN(C)CC4)cc3)nc2n1-c1cccc(C(C)(C)O)n1 [MK1775], the “Z' of S-phase gammaH2AX difference (Z-score)” value was inactive: -0.0501.

Consider `CCC(NC(C)C)C(O)c1ccc(O)c(O)c1` (centres undefined) [Isotharine mesylate] + C=CCn1c(=O)c2cnc(Nc3ccc(N4CCN(C)CC4)cc3)nc2n1-c1cccc(C(C)(C)O)n1 [MK1775], for which the “Z' of S-phase gammaH2AX difference (Z-score)” value is inactive: 0.377.

With `C[C@H](NC(=O)Cc1cc(F)cc(F)c1)C(=O)N[C@H](C(=O)OC(C)(C)C)c1ccccc1` + C=CCn1c(=O)c2cnc(Nc3ccc(N4CCN(C)CC4)cc3)nc2n1-c1cccc(C(C)(C)O)n1 [MK1775], the “Z' of S-phase gammaH2AX difference (Z-score)” value is inactive: -0.0333.

Regarding `CN1CCc2cccc3c2[C@H]1Cc1ccc(O)c(O)c1-3` [Apomorphine hydrochloride hemihydrate] + C=CCn1c(=O)c2cnc(Nc3ccc(N4CCN(C)CC4)cc3)nc2n1-c1cccc(C(C)(C)O)n1 [MK1775], the “Z' of S-phase gammaH2AX difference (Z-score)” value was inactive: 0.15.

For the molecule `COCC[n+]1c2c(n(Cc3cnccn3)c1C)C(=O)c1ccccc1C2=O` + C=CCn1c(=O)c2cnc(Nc3ccc(N4CCN(C)CC4)cc3)nc2n1-c1cccc(C(C)(C)O)n1 [MK1775], the “Z' of S-phase gammaH2AX difference (Z-score)” value was inactive: -1.25.

Turning to `Nc1ncnc2c1c(-c1ccc(Oc3ccccc3)cc1)cn2C1CCCC1` + C=CCn1c(=O)c2cnc(Nc3ccc(N4CCN(C)CC4)cc3)nc2n1-c1cccc(C(C)(C)O)n1 [MK1775], the “Z' of S-phase gammaH2AX difference (Z-score)” value was inactive: -0.527.

Regarding `C[C@@H]1CCN(C(=O)CC#N)C[C@@H]1N(C)c1ncnc2[nH]ccc12` + C=CCn1c(=O)c2cnc(Nc3ccc(N4CCN(C)CC4)cc3)nc2n1-c1cccc(C(C)(C)O)n1 [MK1775], the “Z' of S-phase gammaH2AX difference (Z-score)” value is inactive: 0.15 and inactive: 0.984.

With `Nc1nc2ccc(Cl)cc2c2nc(-c3ccco3)nn12` + C=CCn1c(=O)c2cnc(Nc3ccc(N4CCN(C)CC4)cc3)nc2n1-c1cccc(C(C)(C)O)n1 [MK1775], the “Z' of S-phase gammaH2AX difference (Z-score)” value is inactive: 0.605.

`COc1cc2c(cc1C(F)(F)F)N(C(=O)Nc1cc(F)cc(-c3cccnc3)c1)CC2` + C=CCn1c(=O)c2cnc(Nc3ccc(N4CCN(C)CC4)cc3)nc2n1-c1cccc(C(C)(C)O)n1 [MK1775]: the “Z' of S-phase gammaH2AX difference (Z-score)” value is inactive: 0.819.

With `CCC(C)N(C)C(=O)c1cc2ccccc2c(-c2ccccc2Cl)n1` (centres undefined) + C=CCn1c(=O)c2cnc(Nc3ccc(N4CCN(C)CC4)cc3)nc2n1-c1cccc(C(C)(C)O)n1 [MK1775], the “Z' of S-phase gammaH2AX difference (Z-score)” value was inactive: 0.511.

With `COc1ccc(CCN(C)CCCC(C#N)(c2cc(OC)c(OC)c(OC)c2)C(C)C)cc1OC` (centres undefined) [(?)-Methoxyverapamil hydrochloride] + C=CCn1c(=O)c2cnc(Nc3ccc(N4CCN(C)CC4)cc3)nc2n1-c1cccc(C(C)(C)O)n1 [MK1775], the “Z' of S-phase gammaH2AX difference (Z-score)” value was inactive: 0.961.

For `CC[C@H](C)C(=O)O[C@H]1CCC=C2C=C[C@H](C)[C@H](CC[C@@H]3C[C@@H](O)CC(=O)O3)[C@H]21` [Mevastatin] + C=CCn1c(=O)c2cnc(Nc3ccc(N4CCN(C)CC4)cc3)nc2n1-c1cccc(C(C)(C)O)n1 [MK1775], the “Z' of S-phase gammaH2AX difference (Z-score)” value was inactive: 0.184.

As for `CCn1cc(C(=O)O)c(=O)c2ccc(Cc3ccccc3)nc21` [Amfonelic acid] + C=CCn1c(=O)c2cnc(Nc3ccc(N4CCN(C)CC4)cc3)nc2n1-c1cccc(C(C)(C)O)n1 [MK1775], the “Z' of S-phase gammaH2AX difference (Z-score)” value was inactive: 2.34.

For the molecule `NNc1nncc2ccccc12` [Hydralazine hydrochloride] + C=CCn1c(=O)c2cnc(Nc3ccc(N4CCN(C)CC4)cc3)nc2n1-c1cccc(C(C)(C)O)n1 [MK1775], the “Z' of S-phase gammaH2AX difference (Z-score)” value was inactive: -0.26.
